Laboratory results reported in PubChem BioAssay AID1347131 (National Center for Advancing Translational Sciences (NCATS), 2019).
In all, about 410,000 compounds went through this assay and about 2,000 (0.49%) were called active. The inconclusive results got no clear call from the source; some entries with a clear call stand among them for comparison. Calls follow the shape of the full dose curve; tested in HEK293 reporter line. Potencies beside an inconclusive call are fits to weak or partial responses and may not hold up.

Assay: qHTS Assay for Foot and Mouth Disease Virus Antivirals: Primary Screen against the MLPCN compound library; also: nearly all actives have a fitted effect of over 55% in size
Settings: FMDV antiviral cell-based qHTS; activity, negative = inhibition: at 57.9 µM (top of the series)
Potency is read from the fitted curve at half-maximal effect.

| Compound | Potency | activity, negative = inhibition |
| --- | --- | --- |
| COc1ccc(-n2cccc2/C=C/[N+](=O)[O-])cc1 | inconclusive: 28.2 µM [inhibitor, partial curve, poor fit] |  |
| COc1ccc(-c2cn[nH]c2-c2ccc(OCc3ccc([N+](=O)[O-])cc3)cc2O)cc1OC | inconclusive: 15.8 µM [inhibitor, partial curve, poor fit] |  |
| Cc1sc2ncnc(N3CCN(S(=O)(=O)c4ccccc4)CC3)c2c1C | inconclusive: 20 µM [inhibitor, partial curve, poor fit] |  |
| O=C(Nc1sc2c(c1C(=O)Nc1ccc(Cl)cc1)CCCC2)c1cccs1 |  | inactive: -28.2% |
| Cc1cccn2c(=O)c(/C=C(\C#N)C(=O)NC3CCS(=O)(=O)C3)c(Oc3ccccc3Cl)nc12 (stereo not given) | inconclusive: 20 µM [inhibitor, partial curve, poor fit] |  |
| Cc1ccc(NC(=O)CSc2nc3ccccc3c3nc(CCc4c(C)n[nH]c4C)nn23)c(C)c1 | inconclusive: 4.47 µM [inhibitor, full curve] |  |
| COC1=CC(=O)C(O)=C/C1=C\C=C\c1ccccc1 | inconclusive: 39.8 µM [inhibitor, partial curve, poor fit] |  |
| Fc1ccc(N2CCN(c3ncnc4c3nc3n4CCCCC3)CC2)cc1 | inconclusive: 25.1 µM [inhibitor, partial curve, poor fit] |  |
| COc1cccc(C(=O)NCC(c2cccnc2)N2CCN(c3ccccc3OC)CC2)c1 (stereo not given) | inconclusive: 35.5 µM [inhibitor, partial curve, poor fit] |  |
| COc1cccc(NC(=O)N2CCc3nc(NCc4cccc(Oc5ccccc5)c4)ncc3C2)c1 | inconclusive: 14.1 µM [inhibitor, single point] |  |
| NS(=O)(=O)c1ccc(CCNc2ncnc3c2c(-c2ccccc2)cn3-c2ccc(F)cc2)cc1 | inconclusive: 15.8 µM [inhibitor, partial curve, poor fit] |  |
| O=C(c1ccncc1)c1ccc(N2CCN(C3CC(=O)N(Cc4cccs4)C3=O)CC2)cc1 (stereo not given) | inconclusive: 25.1 µM [inhibitor, partial curve, poor fit] |  |
| COc1ccc(-c2nsc3c(N4CCCC4)ncnc23)cc1 | active: 22.4 µM |  |
| COc1ccc(CC(=O)Nc2nc(-c3ccc(OC)c(OC)c3)cs2)cc1OC |  | inactive: -36.1% |
| CCOC(=O)c1cn2nc(N3CCCCC3)ccc2n1 | inconclusive: 17.8 µM [inhibitor, single point] |  |
| CCOC(=O)c1c(C)oc2c1c(CN1CCN(CCO)CC1)c(O)c1ccccc12 | inconclusive: 39.8 µM [inhibitor, single point] |  |
| COc1cc(NC(=O)N2CCC3(CC2)Nc2ccccc2-n2cccc23)cc(OC)c1OC |  | inactive: -30.8% |
| COc1ccc(-c2cc(C(F)(F)F)nc(NCc3cccnc3)n2)cc1 | inconclusive: 31.6 µM [inhibitor, partial curve, poor fit] |  |
| O=C(O)c1ccc2c(c1)C(=O)N(c1cccc(C(=O)/C=C/c3ccccc3)c1)C2=O | inconclusive: 25.1 µM [inhibitor, partial curve, poor fit] |  |
| CCCCNCCCOc1cccc(Cl)c1 | inconclusive: 15.8 µM [inhibitor, partial curve] |  |

| Compound | Potency | activity, negative = inhibition |
| --- | --- | --- |
| O=C(Nc1ccc(Oc2cccnc2)cc1)C1CCN(Cc2cc(Cl)ccc2O)CC1 | inconclusive: 7.94 µM [inhibitor, partial curve, poor fit] |  |
| CC(C(=O)Nc1ccc([N+](=O)[O-])cc1)N1CCN(C/C=C/c2ccccc2)CC1 (stereo not given) | inconclusive: 28.2 µM [inhibitor, partial curve, poor fit] |  |
| O=C(CSc1nc2c([nH]c3ccccc32)c(=O)n1-c1ccc(Cl)cc1)N1CCCCCC1 | inconclusive: 8.91 µM [inhibitor, partial curve, poor fit] |  |
| COc1ccc(Cl)c(Cn2c(NCC(C)O)nc3c2c(=O)n(C)c(=O)n3C)c1 (stereo not given) | inconclusive: 31.6 µM [inhibitor, partial curve, poor fit] |  |
| O=C(COc1ccc2c(-c3ccccc3)cc(=O)oc2c1)NCCCn1ccnc1 |  | inconclusive: -30.4% [inhibitor] |
| COCCn1c(C)cc(C(=O)COC(=O)c2ccc[nH]c2=O)c1C |  | inactive: -45.2% |
| O=S(=O)(O)c1cc(O)c(N=Nc2ccc(O)cc2O)c2ccccc12 | inconclusive: 28.2 µM [inhibitor, partial curve, poor fit] |  |
| Cc1cc(NC(=O)CSCC(=O)Nc2cc(C(F)(F)F)ccc2N2CCCC2)no1 | inconclusive: 28.2 µM [inhibitor, partial curve, poor fit] |  |
| COc1ccc(C2=Nc3cc(C)ccc3OC2)cc1 | inconclusive: 14.1 µM [inhibitor, partial curve, poor fit] |  |
| CCN(CC)S(=O)(=O)c1cnccc1N1CCN(c2cccc(Cl)c2)CC1 | inconclusive: 39.8 µM [inhibitor, single point] |  |
| Cc1occc1C(=O)NNC(=S)Nc1ccccc1 |  | inactive: 122% |
| COc1ccc(CNC(=O)[C@H](C)N2C(=O)N3CCc4c([nH]c5ccccc45)[C@@]3(C)C2=O)cc1OC | inconclusive: 31.6 µM [inhibitor, single point] |  |
| COc1ccc(CNC(=O)/C=C/c2cc([N+](=O)[O-])ccc2OC(F)F)cc1OC | inconclusive: 14.1 µM [inhibitor, single point] |  |
| CNc1cc(Cl)c2nonc2c1[N+](=O)[O-] | inconclusive: 12.6 µM [inhibitor, partial curve, poor fit] |  |
| CC1CCc2cccc3c2N1c1cc(C#N)c(C#N)cc1O3 (stereo not given) | inconclusive: 1.78 µM [inhibitor, full curve] |  |
| O=C(NN1C(=O)C2C3C=CC([C@H]4CC34)[C@@H]2C1=O)c1ccc(Br)cc1 (stereo not given in full) | inconclusive: 10 µM [inhibitor, partial curve, poor fit] |  |
| CC(C)(C)c1nc(SCC(=O)N2CC(=O)Nc3ccccc32)c2ccccc2n1 | inconclusive: 25.1 µM [inhibitor, partial curve, poor fit] |  |
| Cc1cc(C(=O)COC(=O)c2cccc(O)c2)c(C)n1C1CC1 | inconclusive: 15.8 µM [inhibitor, single point] |  |
| COc1ccc(/C=C/C(=O)c2ccc([N+](=O)[O-])o2)cc1OC | inconclusive: 35.5 µM [inhibitor, single point] |  |
| C#Cc1cccc(Nc2nc(NCc3ccccc3OC)nc3ccsc23)c1 | inconclusive: 31.6 µM [inhibitor, partial curve, poor fit] |  |

Fetched one by one from above:

| Compound | Potency | activity, negative = inhibition |
| --- | --- | --- |
| Cc1occc1C(=O)NNC(=S)Nc1ccccc1 |  | inactive: 122% |
| CCN(CC)S(=O)(=O)c1cnccc1N1CCN(c2cccc(Cl)c2)CC1 | inconclusive: 39.8 µM [inhibitor, single point] |  |
| CNc1cc(Cl)c2nonc2c1[N+](=O)[O-] | inconclusive: 12.6 µM [inhibitor, partial curve, poor fit] |  |

Going on with the list:

| Compound | Potency | activity, negative = inhibition |
| --- | --- | --- |
| O=C(COc1ccccc1)NNc1c2ccccc2nc2ccccc12 | inconclusive: 25.1 µM [inhibitor, partial curve, poor fit] |  |
| O=C(NC1=NCCS1)C1COc2ccccc2O1 (stereo not given) | inconclusive: 10 µM [inhibitor, partial curve, poor fit] |  |
| CCOC(=O)C1=C(O)C(=O)N(c2ccc(S(N)(=O)=O)cc2)C1c1ccc(Br)cc1 (stereo not given) | inconclusive: 7.94 µM [inhibitor, full curve] |  |
| Cc1cccc(C)c1OCc1cc(C(=O)N(Cc2c(C)nn(C)c2C)C2CC2)no1 | inconclusive: 20 µM [inhibitor, partial curve, poor fit] |  |
| Cc1ccc(NC(=S)c2nc3ccccc3[nH]2)c(C)c1 | inconclusive: 22.4 µM [inhibitor, single point] |  |
| CCCCN(C)C(=O)c1cc2cc3ccc(OC)cc3nc2s1 | inconclusive: 39.8 µM [inhibitor, single point] |  |
| COc1cccc(/C=C/C(=O)OCC(=O)c2c[nH]c3ccccc23)c1OC | inconclusive: 25.1 µM [inhibitor, partial curve, poor fit] |  |
| O=C(Nc1ccnn1C1CCN(CCCc2ccccc2)CC1)c1cccc(F)c1 |  | inconclusive: -31% [inhibitor] |
| CCOc1cc(/C=N/Nc2cccc(C(=O)O)c2)ccc1OC(=O)c1ccccc1 | inconclusive: 3.98 µM [inhibitor, partial curve, poor fit] |  |
| Nc1cc(C(=O)OCC(=O)NCCNC(=O)COC(=O)c2ccc(Cl)c(N)c2)ccc1Cl |  | inactive: -32.3% |
| Cc1ccc(C)c(N2CCN(C(=O)c3ccc(N4CCCC4=O)cc3)CC2)c1 |  | inactive: -31.6% |
| Nc1c(C(=O)Nc2ccc(OC(F)(F)F)cc2)sc2nc3c(cc12)N1CCC3CC1 | inconclusive: 25.1 µM [inhibitor, partial curve, poor fit] |  |
| CN(Cc1nc2ccccc2c(=O)[nH]1)C(=O)c1cccc(S(=O)(=O)N2CCCCCC2)c1 |  | inactive: -38.5% |
| O=C1C(=Cc2ccco2)CCC1=Cc1ccco1 | inconclusive: 44.7 µM [inhibitor, single point] |  |
| Cc1ccc(-c2nc3ccccn3c2Nc2ccc3c(c2)OCO3)o1 | inconclusive: 15.8 µM [inhibitor, partial curve] |  |
| O=C(N/N=C/c1cccs1)c1n[nH]c2c1CCC2 | inconclusive: 17.8 µM [inhibitor, single point] |  |
| CCOc1ccccc1-n1c(O)c(C=Nc2ccc(N(CC)CC)cc2)c(=O)[nH]c1=O |  | inconclusive: -31.7% [inhibitor] |
| NC(=S)N/N=C/c1ccccc1OCCSc1ccc(Cl)cc1 | inconclusive: 35.5 µM [inhibitor, single point] |  |
| O=C(Nc1ccccc1C(=O)N/N=C/c1ccncc1)c1ccccc1 | inconclusive: 22.4 µM [inhibitor, single point] |  |
| CN(Cc1cccc(-c2ccncc2)c1)C(=O)Oc1ccccc1Cl | inconclusive: 20 µM [inhibitor, partial curve, poor fit] |  |

Copied from the entries so far, 2 compounds:

| Compound | Potency | activity, negative = inhibition |
| --- | --- | --- |
| COc1ccc(-c2cc(C(F)(F)F)nc(NCc3cccnc3)n2)cc1 | inconclusive: 31.6 µM [inhibitor, partial curve, poor fit] |  |
| O=C(O)c1ccc2c(c1)C(=O)N(c1cccc(C(=O)/C=C/c3ccccc3)c1)C2=O | inconclusive: 25.1 µM [inhibitor, partial curve, poor fit] |  |
